Experiment [1] addresses T1, recombinant human CD70 fused with a dual myc-His tag (human) (UniProt P32970).
T1 sequence: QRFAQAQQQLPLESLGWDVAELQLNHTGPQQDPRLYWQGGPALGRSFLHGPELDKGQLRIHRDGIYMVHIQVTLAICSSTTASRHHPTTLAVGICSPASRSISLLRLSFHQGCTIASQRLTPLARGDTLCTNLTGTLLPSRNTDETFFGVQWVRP
Put plainly: ELISA on plate-coated recombinant myc-tagged CD70, anti-human IgG-HRP detection. On the technique in general: In an ELISA, binding on a coated surface is turned into a signal by an enzyme label.

Experiment [2] concerns the target T1, recombinant human CD70 fused with a dual myc-His tag (human). Put plainly: ELISA, plate coated with recombinant myc-tagged CD70, antibody from 1 µg/ml in 1:2 dilutions.
For experiment [3] the target is unchanged. As to the kind of experiment: blocking ELISA: antibody pre-mixed with CD70-myc-his, binding to captured CD27-Fc-his detected with anti-myc-HRP; blocked ligand CD27.

Results are given in words; binding and its absence hold for the method and conditions named. Some entries that bind do so weakly or less than the wild type. Where a sequence is shown, tags or fusion partners need not be part of it.

B1: anti-CD70 human monoclonal antibody 10B4 (antibody, V domains shown)
VH: QIQLVESGGGVVQPGRSLRLSCAASGFTFGYYAMHWVRQAPGKGLEWVAVISYDGSIKYYADSVKGRFTISRDNSKNTLYLQMNSLRAEDTAVYYCAREGPYSNYLDYWGQGTLVTVSS
VL: AIQLTQSPSSLSASVGDRVTITCRASQGISSALAWYQQKPGKAPKFLIYDASSLESGVPSRFSGSGSGTDFTLTISSLQPEDFATYYCQQFNSYPFTFGPGTKVDIK
notes: Human IgG from hybridoma
Regarding B1, the binding entry in experiment [1] and in experiment [2] was “binds” throughout.

B2: anti-CD70 human monoclonal antibody 8B5 (antibody, V domains shown)
VH: QVQLVESGGGVVQPGRSLRLSCATSGFTFSDYGMHWVRQAPGKGLEWVAVIWYDGSNKYYADSVKGRFTISRDNSKKTLSLQMNSLRAEDTAVYYCARDSIMVRGDYWGQGTLVTVSS
VL: DIQMTQSPSSLSASVGDRVTITCRASQGISSWLAWYQQKPEKAPKSLIYAASSLQSGVPSRFSGSGSGTDFTLTISSLQPEDFATYYCQQYNSYPLTFGGGTKVEIK
notes: Human IgG from hybridoma
For B2, the binding result in experiment [1], in experiment [3] and in experiment [2] was “binds” throughout.

The values are drawn from patent publication US20100150950A1, “HUMAN ANTIBODIES THAT BIND CD70 AND USES THEREOF” (Medarex, Inc., priority 2006, published 2010).
